Source: the supplement of paper PMC10849652
The other results are listed elsewhere or left out.

Amino acid sequences for entries named in this document (tags omitted). A change or cut given only in a name is not applied to a line headed by its entry.
UniProt Q9NZB8: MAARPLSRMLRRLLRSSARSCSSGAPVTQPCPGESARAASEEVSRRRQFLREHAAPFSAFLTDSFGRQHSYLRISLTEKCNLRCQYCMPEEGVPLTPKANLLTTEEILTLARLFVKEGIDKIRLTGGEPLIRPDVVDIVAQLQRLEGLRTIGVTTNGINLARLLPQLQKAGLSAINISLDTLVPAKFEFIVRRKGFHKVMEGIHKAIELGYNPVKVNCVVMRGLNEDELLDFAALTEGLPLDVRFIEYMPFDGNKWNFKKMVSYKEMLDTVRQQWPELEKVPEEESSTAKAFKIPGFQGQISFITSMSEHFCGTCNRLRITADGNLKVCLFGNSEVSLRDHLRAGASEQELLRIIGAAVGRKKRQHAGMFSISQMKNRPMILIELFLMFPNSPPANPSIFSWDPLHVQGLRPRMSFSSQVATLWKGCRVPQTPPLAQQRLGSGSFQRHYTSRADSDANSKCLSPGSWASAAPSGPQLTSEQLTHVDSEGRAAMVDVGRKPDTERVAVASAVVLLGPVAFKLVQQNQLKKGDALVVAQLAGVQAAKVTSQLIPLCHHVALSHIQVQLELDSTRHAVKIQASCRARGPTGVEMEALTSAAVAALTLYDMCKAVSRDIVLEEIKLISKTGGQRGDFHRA
UniProt Q9BV20: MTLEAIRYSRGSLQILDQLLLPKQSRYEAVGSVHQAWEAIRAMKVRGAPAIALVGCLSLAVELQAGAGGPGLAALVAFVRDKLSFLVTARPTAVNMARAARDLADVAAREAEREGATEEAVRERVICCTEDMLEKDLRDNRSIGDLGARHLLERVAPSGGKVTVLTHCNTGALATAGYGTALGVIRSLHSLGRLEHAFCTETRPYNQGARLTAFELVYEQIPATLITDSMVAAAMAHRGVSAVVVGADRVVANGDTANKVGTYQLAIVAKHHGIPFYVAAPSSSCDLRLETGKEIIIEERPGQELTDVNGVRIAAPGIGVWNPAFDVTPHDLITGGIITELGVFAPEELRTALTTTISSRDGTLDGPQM
UniProt Q7RTP6, whole entry, looked up: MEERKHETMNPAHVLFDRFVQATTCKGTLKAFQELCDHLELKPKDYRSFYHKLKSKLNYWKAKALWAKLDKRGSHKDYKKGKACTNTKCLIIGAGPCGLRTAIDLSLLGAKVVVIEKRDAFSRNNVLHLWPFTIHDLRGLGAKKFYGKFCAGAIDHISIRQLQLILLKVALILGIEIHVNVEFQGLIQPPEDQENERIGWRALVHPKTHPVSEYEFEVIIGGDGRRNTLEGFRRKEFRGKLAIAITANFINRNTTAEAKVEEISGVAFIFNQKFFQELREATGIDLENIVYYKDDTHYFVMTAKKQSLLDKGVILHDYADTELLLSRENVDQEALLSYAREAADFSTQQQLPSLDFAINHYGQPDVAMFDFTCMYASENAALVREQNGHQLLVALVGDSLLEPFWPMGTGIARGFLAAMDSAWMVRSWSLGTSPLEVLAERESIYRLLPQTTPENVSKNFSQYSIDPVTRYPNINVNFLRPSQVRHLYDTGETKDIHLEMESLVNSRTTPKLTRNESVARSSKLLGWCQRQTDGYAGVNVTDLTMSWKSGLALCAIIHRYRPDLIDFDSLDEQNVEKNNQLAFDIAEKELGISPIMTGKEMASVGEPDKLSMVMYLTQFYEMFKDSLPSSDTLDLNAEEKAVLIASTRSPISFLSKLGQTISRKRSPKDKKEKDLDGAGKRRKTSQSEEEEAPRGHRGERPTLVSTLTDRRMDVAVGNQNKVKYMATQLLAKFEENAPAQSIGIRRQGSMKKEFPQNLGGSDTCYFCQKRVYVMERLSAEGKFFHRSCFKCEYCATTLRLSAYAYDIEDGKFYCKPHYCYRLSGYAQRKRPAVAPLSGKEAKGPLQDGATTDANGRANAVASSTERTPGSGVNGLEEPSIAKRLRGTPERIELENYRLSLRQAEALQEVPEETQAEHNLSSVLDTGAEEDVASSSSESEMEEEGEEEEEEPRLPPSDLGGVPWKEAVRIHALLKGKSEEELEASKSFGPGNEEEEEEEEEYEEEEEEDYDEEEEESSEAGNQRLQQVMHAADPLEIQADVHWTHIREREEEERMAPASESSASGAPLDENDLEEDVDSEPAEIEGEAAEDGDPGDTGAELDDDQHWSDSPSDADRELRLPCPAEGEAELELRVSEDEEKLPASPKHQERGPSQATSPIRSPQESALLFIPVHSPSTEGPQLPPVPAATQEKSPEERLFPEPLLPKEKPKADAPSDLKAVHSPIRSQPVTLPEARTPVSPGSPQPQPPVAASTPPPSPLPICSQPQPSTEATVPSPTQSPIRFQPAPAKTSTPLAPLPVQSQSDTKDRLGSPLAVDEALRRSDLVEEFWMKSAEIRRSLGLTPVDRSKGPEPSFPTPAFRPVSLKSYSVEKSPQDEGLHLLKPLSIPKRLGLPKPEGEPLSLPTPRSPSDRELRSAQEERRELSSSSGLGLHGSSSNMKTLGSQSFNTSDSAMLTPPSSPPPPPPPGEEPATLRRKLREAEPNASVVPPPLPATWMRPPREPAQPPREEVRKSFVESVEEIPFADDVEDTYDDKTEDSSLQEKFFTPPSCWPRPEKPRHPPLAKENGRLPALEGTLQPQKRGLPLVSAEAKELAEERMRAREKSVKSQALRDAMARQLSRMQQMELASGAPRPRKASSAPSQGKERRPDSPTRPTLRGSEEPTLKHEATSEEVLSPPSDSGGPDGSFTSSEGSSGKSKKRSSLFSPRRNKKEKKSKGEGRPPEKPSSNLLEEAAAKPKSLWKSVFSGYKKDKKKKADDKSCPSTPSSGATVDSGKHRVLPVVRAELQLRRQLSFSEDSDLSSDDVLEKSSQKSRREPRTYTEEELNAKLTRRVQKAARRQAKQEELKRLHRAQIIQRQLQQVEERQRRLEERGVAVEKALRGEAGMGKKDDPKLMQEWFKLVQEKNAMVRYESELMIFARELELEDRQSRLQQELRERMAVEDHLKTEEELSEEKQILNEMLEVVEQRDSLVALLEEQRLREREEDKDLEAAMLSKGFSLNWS
UniProt Q9BU76: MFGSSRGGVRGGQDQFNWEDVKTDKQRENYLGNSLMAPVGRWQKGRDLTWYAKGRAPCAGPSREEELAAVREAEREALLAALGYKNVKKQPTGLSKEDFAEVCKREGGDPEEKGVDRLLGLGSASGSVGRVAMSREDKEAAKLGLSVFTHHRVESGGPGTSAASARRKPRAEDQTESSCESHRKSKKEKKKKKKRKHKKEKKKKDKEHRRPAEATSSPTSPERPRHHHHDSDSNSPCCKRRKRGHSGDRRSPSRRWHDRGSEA
UniProt Q8NHP6: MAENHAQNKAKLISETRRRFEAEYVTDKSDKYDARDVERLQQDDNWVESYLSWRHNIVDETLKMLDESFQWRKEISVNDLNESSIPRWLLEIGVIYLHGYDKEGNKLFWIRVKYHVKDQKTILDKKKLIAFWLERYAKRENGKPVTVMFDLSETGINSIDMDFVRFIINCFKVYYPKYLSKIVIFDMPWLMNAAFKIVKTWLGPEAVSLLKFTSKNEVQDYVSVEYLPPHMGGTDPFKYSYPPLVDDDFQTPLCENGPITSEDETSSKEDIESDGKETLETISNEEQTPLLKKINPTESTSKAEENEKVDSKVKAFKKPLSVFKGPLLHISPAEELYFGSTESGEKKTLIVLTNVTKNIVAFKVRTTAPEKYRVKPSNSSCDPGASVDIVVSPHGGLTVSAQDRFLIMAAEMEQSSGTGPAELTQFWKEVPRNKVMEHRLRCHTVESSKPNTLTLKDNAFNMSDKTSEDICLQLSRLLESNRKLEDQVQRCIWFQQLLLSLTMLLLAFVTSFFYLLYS
UniProt O00566: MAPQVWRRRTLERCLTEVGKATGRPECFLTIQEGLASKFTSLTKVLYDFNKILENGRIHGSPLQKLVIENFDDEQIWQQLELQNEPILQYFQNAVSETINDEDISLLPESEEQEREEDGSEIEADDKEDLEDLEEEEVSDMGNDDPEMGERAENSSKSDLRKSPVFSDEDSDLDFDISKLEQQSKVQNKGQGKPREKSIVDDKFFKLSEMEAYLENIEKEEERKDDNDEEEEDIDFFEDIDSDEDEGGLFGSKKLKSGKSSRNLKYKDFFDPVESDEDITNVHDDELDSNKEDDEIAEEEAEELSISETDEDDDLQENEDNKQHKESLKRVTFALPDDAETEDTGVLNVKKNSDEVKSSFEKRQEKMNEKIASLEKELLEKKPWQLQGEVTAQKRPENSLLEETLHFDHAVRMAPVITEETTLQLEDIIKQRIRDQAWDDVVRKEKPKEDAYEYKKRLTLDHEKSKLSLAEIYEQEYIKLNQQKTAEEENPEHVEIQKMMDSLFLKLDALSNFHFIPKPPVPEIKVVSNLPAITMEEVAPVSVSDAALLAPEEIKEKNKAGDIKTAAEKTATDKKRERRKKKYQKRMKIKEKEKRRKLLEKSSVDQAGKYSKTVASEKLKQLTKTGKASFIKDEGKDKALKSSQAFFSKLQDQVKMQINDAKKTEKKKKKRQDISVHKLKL
UniProt Q8N4V1: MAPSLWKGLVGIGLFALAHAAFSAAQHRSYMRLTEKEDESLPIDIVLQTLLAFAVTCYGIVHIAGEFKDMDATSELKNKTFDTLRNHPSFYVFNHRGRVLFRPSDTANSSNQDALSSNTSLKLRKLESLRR
UniProt O75352: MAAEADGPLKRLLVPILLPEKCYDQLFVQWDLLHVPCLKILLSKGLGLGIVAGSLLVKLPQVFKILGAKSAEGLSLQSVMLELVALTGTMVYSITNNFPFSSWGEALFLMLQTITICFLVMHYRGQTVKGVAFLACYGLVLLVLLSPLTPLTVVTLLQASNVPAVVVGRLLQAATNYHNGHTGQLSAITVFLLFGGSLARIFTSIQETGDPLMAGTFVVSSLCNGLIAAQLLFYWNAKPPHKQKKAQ
UniProt Q9NYP9: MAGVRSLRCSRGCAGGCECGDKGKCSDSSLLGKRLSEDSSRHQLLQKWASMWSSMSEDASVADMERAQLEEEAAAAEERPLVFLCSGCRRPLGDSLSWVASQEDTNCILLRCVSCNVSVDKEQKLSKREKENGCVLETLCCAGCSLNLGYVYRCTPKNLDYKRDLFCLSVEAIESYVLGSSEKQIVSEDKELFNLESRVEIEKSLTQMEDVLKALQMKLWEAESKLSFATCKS
UniProt Q6IN84: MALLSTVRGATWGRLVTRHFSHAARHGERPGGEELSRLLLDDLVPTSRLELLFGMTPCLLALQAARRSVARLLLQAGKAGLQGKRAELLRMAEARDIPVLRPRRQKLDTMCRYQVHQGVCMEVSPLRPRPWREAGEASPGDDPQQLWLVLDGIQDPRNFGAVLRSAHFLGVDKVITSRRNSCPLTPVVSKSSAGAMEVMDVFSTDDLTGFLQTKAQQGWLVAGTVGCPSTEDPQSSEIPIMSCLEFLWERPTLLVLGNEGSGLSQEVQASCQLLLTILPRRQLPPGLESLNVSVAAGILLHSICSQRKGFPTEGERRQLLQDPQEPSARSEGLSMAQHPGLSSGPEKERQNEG
UniProt A9UHW6: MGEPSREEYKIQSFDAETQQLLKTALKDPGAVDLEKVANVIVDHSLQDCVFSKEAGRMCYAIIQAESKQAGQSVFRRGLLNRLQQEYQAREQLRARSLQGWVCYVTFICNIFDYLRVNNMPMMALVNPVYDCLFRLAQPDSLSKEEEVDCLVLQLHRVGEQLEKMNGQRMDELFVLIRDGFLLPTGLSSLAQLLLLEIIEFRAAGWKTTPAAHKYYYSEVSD
UniProt Q9UL63, whole entry, looked up: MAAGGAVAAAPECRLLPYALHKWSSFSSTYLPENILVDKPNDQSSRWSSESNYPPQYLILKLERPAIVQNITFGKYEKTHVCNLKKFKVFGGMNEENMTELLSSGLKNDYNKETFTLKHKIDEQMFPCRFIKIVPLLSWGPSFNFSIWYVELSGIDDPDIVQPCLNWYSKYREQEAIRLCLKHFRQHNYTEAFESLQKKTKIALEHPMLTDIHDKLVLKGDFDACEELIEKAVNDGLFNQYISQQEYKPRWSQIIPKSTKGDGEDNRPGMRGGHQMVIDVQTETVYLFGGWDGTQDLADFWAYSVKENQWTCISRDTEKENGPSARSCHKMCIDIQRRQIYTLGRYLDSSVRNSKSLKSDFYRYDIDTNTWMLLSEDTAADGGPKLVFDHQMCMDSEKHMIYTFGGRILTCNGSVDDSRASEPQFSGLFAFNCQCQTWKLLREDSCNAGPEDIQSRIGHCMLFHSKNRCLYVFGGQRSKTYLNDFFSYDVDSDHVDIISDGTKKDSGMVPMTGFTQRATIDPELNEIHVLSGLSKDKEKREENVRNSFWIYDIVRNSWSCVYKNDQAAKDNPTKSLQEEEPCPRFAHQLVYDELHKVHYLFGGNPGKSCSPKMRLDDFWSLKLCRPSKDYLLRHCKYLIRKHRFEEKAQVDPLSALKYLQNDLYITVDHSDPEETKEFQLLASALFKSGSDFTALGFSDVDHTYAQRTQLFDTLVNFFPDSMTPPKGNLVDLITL
UniProt Q9NV56, whole entry, looked up: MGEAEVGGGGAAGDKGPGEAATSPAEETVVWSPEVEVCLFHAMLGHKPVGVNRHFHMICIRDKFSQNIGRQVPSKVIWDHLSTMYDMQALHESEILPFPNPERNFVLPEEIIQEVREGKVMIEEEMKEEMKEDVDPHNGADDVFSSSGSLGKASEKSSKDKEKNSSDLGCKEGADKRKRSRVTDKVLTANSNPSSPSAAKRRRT

Key:
Assay in all cases: log2 fold change, soluble protein after heating vs DMSO (PISA); higher = thermal stabilisation; K562 cells, 10 uM, 30 min; active = over 0.2 and 3.5 SD of the protein, either way, in both replicates (recomputed)
[1] = compound: C1=CC=C(C=C1)[C@H](COC2=CC3=C(C=C2)NC(=O)N3)NC(=O)C4=CC=CN(C4=O)CC5=CC(=C(C=C5)F)F
Summary of the method: (§1)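 Thermal stability values are relative to control samples and come from duplicates. They are expressed as log2 fold changes. For measurement, K562 cells (2×10^6 cells/mL) received 10 μM compound for 30 min, and aliquots were heated for 3 min over 48°C-58°C, pooled, and extracted at 4°C in PBS with 0.5% NP-40. Soluble protein, the supernatant after 21,000xg for 90 min, was quantified by TMTpro 16plex LC-MS/MS with equalised channel sums.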

[2] = compound: CC1=C(SC2=C1C(=N[C@H](C3=NN=C(N32)C)CC(=O)N)C4=CC=C(C=C4)Cl)C
Summary of the method: as §1

[3] = compound: CC1=C2C(=CC=C1)N=C(N(C2=O)C3=CC=CC=C3C)CN4C=NC5=C(N=CN=C54)N
Summary of the method: as §1

[4] = compound: Cc1sc2c(c1C)C(c1ccc(Cl)cc1)=N[C@@H](CC(=O)OC(C)(C)C)c1nnc(C)n1-2
Summary of the method: as §1

[5] = compound: c1ccc([C@@H]2C[C@H]2NC2CCNCC2)cc1
Summary of the method: as §1

Measured: log2 fold change

MOCS1 isoform 8 (UniProt Q9NZB8)
inactive: [1] -0.104 | [2] 0.004 | [3] 0.057 | [4] 0.047 | [5] 0.081

MRPL17 (UniProt Q9NRX2)
inactive: [1] 0.033 | [2] -0.175 | [3] -0.062 | [4] 0.031 | [5] -0.047

MRPL27 (UniProt Q9P0M9)
inactive: [1] 0.06 | [2] -0.264 | [3] -0.064 | [4] 0.115 | [5] 0.021

MRM3 (UniProt Q9HC36)
inactive: [1] 0.145 | [2] -0.223 | [3] -0.208 | [4] 0.119 | [5] 0

MRPL40 (UniProt Q9NQ50)
inactive: [1] 0.064 | [2] -0.259 | [3] -0.091 | [4] 0.043 | [5] -0.054

MRI1 (UniProt Q9BV20)
inactive: [1] -0.017 | [2] 0.048 | [3] 0.119 | [4] -0.011 | [5] -0.006

2 successive records out of the list so far:
MRM3 (UniProt Q9HC36)
inactive: [1] 0.145 | [2] -0.223 | [3] -0.208 | [4] 0.119 | [5] 0

MRPL40 (UniProt Q9NQ50)
inactive: [1] 0.064 | [2] -0.259 | [3] -0.091 | [4] 0.043 | [5] -0.054

Going on with the list.

MRPL12 (UniProt P52815)
inactive: [1] -0.006 | [2] 0.076 | [3] -0.054 | [4] -0.082 | [5] -0.04

MRPL35 (UniProt Q9NZE8)
inactive: [1] 0.061 | [2] -0.163 | [3] -0.163 | [4] 0.15 | [5] 0

MICAL3 (UniProt Q7RTP6)
inactive: [1] -0.007 | [2] 0.054 | [3] 0.101 | [4] 0.032 | [5] 0.037

MMTAG2 (UniProt Q9BU76)
inactive: [1] 0.115 | [2] -0.215 | [3] -0.214 | [4] 0.228 | [5] 0.027

MOSPD2 (UniProt Q8NHP6)
inactive: [1] -0.011 | [2] 0.016 | [3] 0.061 | [4] 0.022 | [5] -0.018

MPHOSPH10 (UniProt O00566)
inactive: [1] 0.023 | [2] -0.279 | [3] -0.206 | [4] 0.094 | [5] -0.024

MMGT1 isoform 2 (UniProt Q8N4V1)
inactive: [1] 0 | [2] 0.104 | [3] 0.033 | [4] -0.067 | [5] -0.038

MPDU1 (UniProt O75352)
inactive: [1] -0.041 | [2] 0.019 | [3] -0.045 | [4] -0.1 | [5] 0.147

MIS18A (UniProt Q9NYP9)
inactive: [1] 0.007 | [2] 0 | [3] -0.011 | [4] -0.018 | [5] 0.03

MKI67 (UniProt P46013)
inactive: [1] 0.03 | [2] -0.082 | [3] -0.041 | [4] 0.036 | [5] 0.036

MRPL51 (UniProt Q4U2R6)
inactive: [1] 0.059 | [2] -0.116 | [3] -0.086 | [4] 0.113 | [5] -0.005

MRPL13 (UniProt Q9BYD1)
inactive: [1] 0.009 | [2] -0.149 | [3] -0.104 | [4] 0.013 | [5] 0

MRM1 (UniProt Q6IN84)
inactive: [1] 0.048 | [2] -0.303 | [3] -0.084 | [4] 0.165 | [5] 0.009

MIF4GD isoform 3 (UniProt A9UHW6)
inactive: [1] 0.01 | [2] 0.106 | [3] 0.11 | [4] -0.059 | [5] 0.04

MMS19 isoform 8 (UniProt Q96T76)
inactive: [1] -0.034 | [2] -0.001 | [3] 0.133 | [4] 0.002 | [5] -0.003

MKLN1 (UniProt Q9UL63)
inactive: [1] 0 | [2] 0.004 | [3] 0.038 | [4] -0.007 | [5] 0.01

MRGBP (UniProt Q9NV56)
inactive: [1] -0.028 | [2] -0.015 | [3] 0.037 | [4] -0.049 | [5] 0.011

MRPL23 (UniProt Q16540)
inactive: [1] 0.076 | [2] -0.068 | [3] 0.001 | [4] 0.11 | [5] -0.031
